Source: US20200148733A1

Assays:
[1] = target: cynomolgus monkey IL-23 (cynomolgus monkey); experiment: solution competition ELISA (FIG. 5B)
[2] = target: cynomolgus monkey IL-23 (cynomolgus monkey); experiment: solution competition ELISA (FIG. 5A)

B1: lipocalin mutein SEQ ID NO: 9 (designed binder)
chain: QDSTSDLIPAPPLSKVPLQQNFQDNQFHGKWYVVGMAGNLMLREDKDPTKMSATIYELKEDKSYNVTWVDFRFKKCKYQIGTFVPGSQPGEFTLGGIKSMPGMTSFLVRVVSTNYNQHAMVFFKYVYQNREYFEITLYGRTKELTSELKENFIRFSKSLGLPENHIVFPVPIDQCIDG
In the case of B1, the binding [1] is reported as “binds”.

B2: lipocalin mutein SEQ ID NO: 10 (designed binder)
chain: QDSTSDLIPAPPLSKVPLQQNFQDNQFHGKWYVVGLAGNTILREDKDPDKMEATIYELKEDKSYNVTSVDFIMKKCWYFITTFVPGSQPGEFTLGHIKSMPGMTSFLVRVVSTNYNQHAMVFFKYVYQNREFFEITLYGRTKELTSELKENFIRFSKSLGLPENHIVFPVPIDQCIDG
For B2, the binding [2] was “binds”.

No constants are given. Whether binding was seen depends on the method and setting. A result given as binding can be weak or reduced; the word gives no strength.
